Measurements: the supplement of paper PMC11006884
The list shows a part of the results, in another mix than the full data.

Sequences of proteins named here, by UniProt entry; tags and fusion partners are left off. A change or cut given only in a name is not applied to a line headed by its entry.
UniProt Q15417: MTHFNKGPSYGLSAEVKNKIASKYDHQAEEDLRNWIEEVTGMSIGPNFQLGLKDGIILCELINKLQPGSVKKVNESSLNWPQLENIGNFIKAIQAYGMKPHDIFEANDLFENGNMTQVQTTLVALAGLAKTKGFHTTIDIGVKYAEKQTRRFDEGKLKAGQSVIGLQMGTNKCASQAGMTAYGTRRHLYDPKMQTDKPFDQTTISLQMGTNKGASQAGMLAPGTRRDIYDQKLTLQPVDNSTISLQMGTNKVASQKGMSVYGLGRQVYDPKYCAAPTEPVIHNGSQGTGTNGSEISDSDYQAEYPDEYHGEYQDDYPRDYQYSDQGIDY
UniProt Q52LJ0: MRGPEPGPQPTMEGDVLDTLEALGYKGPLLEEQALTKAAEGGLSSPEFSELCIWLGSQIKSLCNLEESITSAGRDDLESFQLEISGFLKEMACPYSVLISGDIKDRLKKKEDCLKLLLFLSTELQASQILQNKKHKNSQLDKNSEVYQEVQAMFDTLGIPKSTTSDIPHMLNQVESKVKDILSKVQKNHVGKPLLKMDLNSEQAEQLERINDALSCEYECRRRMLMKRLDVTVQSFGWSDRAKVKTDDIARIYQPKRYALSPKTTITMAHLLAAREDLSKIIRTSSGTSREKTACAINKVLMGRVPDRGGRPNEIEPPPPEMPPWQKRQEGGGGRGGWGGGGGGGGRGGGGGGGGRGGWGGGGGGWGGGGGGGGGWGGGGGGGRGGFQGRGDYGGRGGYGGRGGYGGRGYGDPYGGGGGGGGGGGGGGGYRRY
UniProt Q15334: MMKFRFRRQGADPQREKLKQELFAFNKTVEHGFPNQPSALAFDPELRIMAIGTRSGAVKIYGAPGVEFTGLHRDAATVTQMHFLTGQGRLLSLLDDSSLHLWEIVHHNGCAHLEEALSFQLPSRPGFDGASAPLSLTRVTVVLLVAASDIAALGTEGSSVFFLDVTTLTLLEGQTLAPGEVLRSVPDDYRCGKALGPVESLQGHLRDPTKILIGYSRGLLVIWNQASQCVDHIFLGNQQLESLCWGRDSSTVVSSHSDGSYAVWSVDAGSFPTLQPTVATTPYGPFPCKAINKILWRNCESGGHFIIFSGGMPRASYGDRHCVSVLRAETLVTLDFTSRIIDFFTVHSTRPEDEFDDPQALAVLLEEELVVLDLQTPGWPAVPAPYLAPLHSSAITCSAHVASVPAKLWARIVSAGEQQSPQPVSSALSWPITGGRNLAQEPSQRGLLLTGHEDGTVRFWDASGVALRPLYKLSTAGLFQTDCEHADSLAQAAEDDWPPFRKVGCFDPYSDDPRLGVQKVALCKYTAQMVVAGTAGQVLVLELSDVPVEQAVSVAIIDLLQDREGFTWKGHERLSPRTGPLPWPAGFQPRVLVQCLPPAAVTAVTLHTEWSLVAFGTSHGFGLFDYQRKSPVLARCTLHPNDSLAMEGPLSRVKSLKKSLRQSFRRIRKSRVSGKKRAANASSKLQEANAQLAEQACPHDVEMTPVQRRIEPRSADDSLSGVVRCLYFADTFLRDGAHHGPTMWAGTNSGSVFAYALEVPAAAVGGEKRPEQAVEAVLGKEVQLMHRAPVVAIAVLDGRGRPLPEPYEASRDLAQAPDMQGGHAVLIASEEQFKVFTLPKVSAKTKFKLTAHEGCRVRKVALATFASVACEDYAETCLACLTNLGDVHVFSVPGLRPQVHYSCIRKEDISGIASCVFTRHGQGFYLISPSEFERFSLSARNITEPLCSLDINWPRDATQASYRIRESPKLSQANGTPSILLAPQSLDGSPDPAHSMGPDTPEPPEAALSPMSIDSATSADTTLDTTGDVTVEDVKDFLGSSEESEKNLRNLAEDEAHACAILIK
UniProt Q15834: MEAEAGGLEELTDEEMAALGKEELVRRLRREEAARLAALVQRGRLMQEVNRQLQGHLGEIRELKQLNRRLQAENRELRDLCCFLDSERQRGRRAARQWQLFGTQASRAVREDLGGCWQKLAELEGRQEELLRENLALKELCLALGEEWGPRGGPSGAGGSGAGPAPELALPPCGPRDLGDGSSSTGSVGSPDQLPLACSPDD
UniProt Q4ZIN3: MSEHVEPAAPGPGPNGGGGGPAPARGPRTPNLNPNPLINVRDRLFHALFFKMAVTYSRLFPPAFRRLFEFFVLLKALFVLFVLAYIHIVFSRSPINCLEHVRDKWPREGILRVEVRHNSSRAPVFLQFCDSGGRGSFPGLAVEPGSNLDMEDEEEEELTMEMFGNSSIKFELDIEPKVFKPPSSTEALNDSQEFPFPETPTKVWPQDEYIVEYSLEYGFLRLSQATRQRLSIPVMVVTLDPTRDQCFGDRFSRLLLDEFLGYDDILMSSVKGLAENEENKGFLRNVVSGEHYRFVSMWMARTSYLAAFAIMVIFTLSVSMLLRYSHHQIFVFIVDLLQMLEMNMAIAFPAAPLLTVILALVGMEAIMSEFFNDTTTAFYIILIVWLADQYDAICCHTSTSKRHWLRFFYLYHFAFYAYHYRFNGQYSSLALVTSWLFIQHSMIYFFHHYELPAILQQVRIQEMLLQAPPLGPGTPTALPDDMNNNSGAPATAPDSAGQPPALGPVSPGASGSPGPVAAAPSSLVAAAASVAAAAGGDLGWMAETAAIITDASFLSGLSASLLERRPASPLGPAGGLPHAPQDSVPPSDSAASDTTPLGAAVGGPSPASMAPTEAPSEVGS
UniProt Q15061: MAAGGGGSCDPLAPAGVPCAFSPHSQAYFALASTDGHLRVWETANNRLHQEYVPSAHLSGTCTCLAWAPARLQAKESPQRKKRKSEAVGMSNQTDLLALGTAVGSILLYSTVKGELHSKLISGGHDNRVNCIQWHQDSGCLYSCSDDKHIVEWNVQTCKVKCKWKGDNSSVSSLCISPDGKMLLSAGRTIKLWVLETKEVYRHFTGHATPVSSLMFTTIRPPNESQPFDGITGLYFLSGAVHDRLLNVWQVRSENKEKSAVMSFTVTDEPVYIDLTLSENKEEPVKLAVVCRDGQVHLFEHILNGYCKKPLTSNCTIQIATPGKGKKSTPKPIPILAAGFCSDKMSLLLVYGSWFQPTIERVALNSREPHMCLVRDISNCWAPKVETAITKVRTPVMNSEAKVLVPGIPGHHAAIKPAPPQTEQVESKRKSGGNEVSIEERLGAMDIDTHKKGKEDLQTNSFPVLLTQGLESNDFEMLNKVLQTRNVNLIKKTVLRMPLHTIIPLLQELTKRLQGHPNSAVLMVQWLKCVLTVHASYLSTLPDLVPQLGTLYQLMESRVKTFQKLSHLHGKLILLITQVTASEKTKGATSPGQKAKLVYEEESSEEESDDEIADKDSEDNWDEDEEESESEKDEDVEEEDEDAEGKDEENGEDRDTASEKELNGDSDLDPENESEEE
UniProt Q15386: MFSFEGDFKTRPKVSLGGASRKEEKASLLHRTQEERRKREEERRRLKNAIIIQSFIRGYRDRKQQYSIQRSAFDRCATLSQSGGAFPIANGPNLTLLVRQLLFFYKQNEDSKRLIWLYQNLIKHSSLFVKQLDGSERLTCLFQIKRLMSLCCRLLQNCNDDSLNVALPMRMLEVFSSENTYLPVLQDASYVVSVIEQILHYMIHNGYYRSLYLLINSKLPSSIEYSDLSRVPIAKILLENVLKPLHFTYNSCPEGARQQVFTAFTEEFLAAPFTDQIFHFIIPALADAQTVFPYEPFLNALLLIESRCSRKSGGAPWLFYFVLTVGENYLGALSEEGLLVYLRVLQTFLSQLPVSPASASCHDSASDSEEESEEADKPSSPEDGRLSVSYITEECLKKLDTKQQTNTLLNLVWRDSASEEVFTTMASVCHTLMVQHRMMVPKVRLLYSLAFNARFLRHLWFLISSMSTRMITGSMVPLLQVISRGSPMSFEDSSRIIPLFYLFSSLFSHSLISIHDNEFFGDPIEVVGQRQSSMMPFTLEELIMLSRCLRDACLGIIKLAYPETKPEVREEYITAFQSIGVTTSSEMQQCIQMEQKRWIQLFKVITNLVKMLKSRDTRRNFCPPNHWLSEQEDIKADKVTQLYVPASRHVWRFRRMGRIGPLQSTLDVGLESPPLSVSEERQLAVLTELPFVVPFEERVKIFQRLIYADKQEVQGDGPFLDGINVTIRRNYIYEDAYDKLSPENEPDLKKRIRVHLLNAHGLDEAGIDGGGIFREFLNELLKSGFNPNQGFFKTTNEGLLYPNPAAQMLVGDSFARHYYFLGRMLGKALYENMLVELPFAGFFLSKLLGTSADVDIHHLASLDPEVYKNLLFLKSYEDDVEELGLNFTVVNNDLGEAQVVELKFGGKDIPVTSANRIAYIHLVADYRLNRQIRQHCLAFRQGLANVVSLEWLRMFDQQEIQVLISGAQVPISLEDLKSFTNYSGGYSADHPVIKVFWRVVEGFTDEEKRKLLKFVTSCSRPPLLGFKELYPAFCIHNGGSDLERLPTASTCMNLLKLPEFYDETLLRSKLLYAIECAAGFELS
UniProt Q15365, whole entry, looked up: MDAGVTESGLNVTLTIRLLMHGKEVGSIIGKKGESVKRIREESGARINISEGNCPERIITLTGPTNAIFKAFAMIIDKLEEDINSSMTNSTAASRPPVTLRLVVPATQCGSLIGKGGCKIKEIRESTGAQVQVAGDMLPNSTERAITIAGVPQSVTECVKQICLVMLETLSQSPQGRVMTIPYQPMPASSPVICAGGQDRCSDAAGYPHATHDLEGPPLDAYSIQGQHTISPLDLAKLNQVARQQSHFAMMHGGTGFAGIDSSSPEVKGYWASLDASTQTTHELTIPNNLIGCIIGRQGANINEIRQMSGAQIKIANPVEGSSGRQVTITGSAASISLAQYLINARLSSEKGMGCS
UniProt Q49AM1: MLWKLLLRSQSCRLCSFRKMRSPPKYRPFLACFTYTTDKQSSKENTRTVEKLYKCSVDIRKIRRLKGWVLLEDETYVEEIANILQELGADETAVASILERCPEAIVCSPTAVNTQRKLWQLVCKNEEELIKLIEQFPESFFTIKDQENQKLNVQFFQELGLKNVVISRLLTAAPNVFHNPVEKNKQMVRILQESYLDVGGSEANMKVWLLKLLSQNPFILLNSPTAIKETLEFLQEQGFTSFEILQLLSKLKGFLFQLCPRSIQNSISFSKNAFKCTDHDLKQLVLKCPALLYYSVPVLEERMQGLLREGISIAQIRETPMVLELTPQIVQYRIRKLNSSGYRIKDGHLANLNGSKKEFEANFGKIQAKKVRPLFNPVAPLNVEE
UniProt Q15796, whole entry, looked up: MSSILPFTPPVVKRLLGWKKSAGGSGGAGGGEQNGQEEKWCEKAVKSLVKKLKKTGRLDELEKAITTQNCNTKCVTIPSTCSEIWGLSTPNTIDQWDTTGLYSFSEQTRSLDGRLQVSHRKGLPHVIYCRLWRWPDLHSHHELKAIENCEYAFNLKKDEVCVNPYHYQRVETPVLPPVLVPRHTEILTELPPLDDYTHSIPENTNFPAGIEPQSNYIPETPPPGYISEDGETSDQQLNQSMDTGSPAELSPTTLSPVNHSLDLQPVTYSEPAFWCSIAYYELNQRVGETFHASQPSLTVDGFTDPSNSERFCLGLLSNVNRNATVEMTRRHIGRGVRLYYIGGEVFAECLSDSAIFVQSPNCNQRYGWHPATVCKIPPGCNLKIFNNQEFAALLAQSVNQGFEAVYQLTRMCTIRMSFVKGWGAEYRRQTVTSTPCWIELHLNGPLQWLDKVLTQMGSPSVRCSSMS
UniProt Q15276: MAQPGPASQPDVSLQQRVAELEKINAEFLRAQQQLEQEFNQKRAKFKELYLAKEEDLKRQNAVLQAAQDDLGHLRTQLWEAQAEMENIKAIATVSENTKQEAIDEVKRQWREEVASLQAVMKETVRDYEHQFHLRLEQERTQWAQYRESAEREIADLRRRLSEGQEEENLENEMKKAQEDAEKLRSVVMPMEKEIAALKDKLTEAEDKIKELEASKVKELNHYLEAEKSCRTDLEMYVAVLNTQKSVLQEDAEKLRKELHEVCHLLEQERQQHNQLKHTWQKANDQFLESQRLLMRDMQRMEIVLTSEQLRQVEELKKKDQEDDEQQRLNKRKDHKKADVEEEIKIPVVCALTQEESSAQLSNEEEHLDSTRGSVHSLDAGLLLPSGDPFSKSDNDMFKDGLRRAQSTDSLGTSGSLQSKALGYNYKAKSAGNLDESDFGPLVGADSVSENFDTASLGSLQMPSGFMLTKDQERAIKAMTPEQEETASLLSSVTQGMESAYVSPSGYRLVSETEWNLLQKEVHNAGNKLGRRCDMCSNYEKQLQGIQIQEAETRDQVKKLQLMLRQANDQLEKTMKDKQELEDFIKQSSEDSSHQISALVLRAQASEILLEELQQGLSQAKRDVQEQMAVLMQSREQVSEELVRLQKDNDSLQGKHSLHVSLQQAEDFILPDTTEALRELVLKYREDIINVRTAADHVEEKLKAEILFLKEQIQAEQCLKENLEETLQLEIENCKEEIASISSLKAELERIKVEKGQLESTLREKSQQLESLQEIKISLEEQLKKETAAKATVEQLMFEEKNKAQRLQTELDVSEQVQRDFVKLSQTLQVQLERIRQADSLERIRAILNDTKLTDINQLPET

The targets below were run with COC(=O)C#Cc1ccccc1 [methyl 3-phenylpropiolate] (assay: log2 ratio of iodoacetamide-alkyne labeling of the cysteine site, DMSO over compound (competition); higher = stronger covalent engagement of the cysteine by the compound, active = 1 or more). Settings: 500 µM; treatment time 1 h; system: HEK293T cell lysate.
Summary of the method: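 For each cysteine, the log2 competition ratio is mean control-channel reporter intensity over mean compound-channel reporter intensity. HEK293T lysate (2 mg/mL) was exposed to vehicle or electrophile (500 µM, 1 h, ambient temperature), labelled with iodoacetamide alkyne (1 h), clicked to sCIP-TMT reagents, digested overnight with trypsin at 37 °C, streptavidin-enriched and analysed by Orbitrap Eclipse LC-MS/MS with FAIMS and FragPipe. Cysteines quantified in only one of three replicates, each with duplicate channels, were excluded.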

log2 ratio of iodoacetamide-alkyne labeling, active:
IAH1 C4 (UniProt Q2TAA2) 2.43, CNN3 C173 (UniProt Q15417) 1.01

log2 ratio of iodoacetamide-alkyne labeling, inactive:
VPS26B C334 (UniProt Q4G0F5) 0.1, KIF14 C610 (UniProt Q15058) 0.442, FAM98B C216 (UniProt Q52LJ0) -0.115, UniProt Q1ED39_C78 0.247, RALBP1 C451 (UniProt Q15311) 0.237, LLGL1 C636 (UniProt Q15334) 0.538, EZH2 C83 (UniProt Q15910) 0.434, FAM98B C63 (UniProt Q52LJ0) 0.105, DBN1 C96 (UniProt Q16643) 0.28, SF1 C282 (UniProt Q15637) 0.123, CCDC85B C173 (UniProt Q15834) 0.334, UniProt Q4ZIN3_C129 0.182, UniProt Q16513_C131 0.89, WDR43 C9 (UniProt Q15061) 0.216, PTGES3 C58 (UniProt Q15185) 0.356, INF2 C971 (UniProt Q27J81) 0.608, UBE3C C252 (UniProt Q15386) 0.306, UniProt Q15042_C873 0.165, UniProt Q15365_C293 0.11, MTERF2 C288 (UniProt Q49AM1) -0.33, ERCC6L C356 (UniProt Q2NKX8) 0.193, LRRC41 C588 (UniProt Q15345) 0.225, SMAD2 C41 (UniProt Q15796) 0.994, SF1 C292 (UniProt Q15637) 0.123, MAPRE1 C228 (UniProt Q15691) 0.00341, EFTUD2 C148 (UniProt Q15029) 0.297, LRRC14 C68 (UniProt Q15048) 0.318, RABEP1 C536 (UniProt Q15276) 0.143, DLGAP5 C592 (UniProt Q15398) 0.483, RRS1 C52 (UniProt Q15050) 0.186, C5orf22 C195 (UniProt Q49AR2) 0.458, LLGL1 C947 (UniProt Q15334) 0.0729, KIF14 C471 (UniProt Q15058) 0.309, UAP1L1 C332 (UniProt Q3KQV9) 0.468, ELAVL1 C13 (UniProt Q15717) 0.328
